The target of one assay is ALK-wt (Homo sapiens, UniProt Q9UM73). The assay is described as follows: Biochemical kinase assay, ALK-wt kinase domain. As to conditions: read-out: ALK-wt Ki^app; apparent inhibitory constant, Morrison equation; ATP 2 mM in substrate solution.
Another assay deals with ALK L1196M/G1202R (Homo sapiens, UniProt Q9UM73, G1202R/L1196M). The assay is described as follows: Biochemical kinase assay, ALK L1196M/G1202R kinase domain. As to conditions: read-out: ALK-L1196M-G1202R Ki^app; apparent inhibitory constant, Morrison equation; ATP 2 mM in substrate solution.
A further assay deals with ROS1-wt (Homo sapiens, UniProt P08922). The assay can be described thus: Biochemical kinase assay, ROS1-wt kinase domain. As to conditions: read-out: ROS1-wt Ki^app; apparent inhibitory constant, Morrison equation; ATP 2 mM in substrate solution.
Another assay deals with ROS1-G2032R (Homo sapiens, UniProt P08922, G2032R). The assay can be described thus: Biochemical kinase assay, ROS1-G2032R kinase domain. As to conditions: read-out: ROS1-G2032R Ki^app; apparent inhibitory constant, Morrison equation; ATP 2 mM in substrate solution.
A further assay deals with TRKA-wt (Homo sapiens, UniProt P04629). The assay is described as follows: Biochemical kinase assay, TRKA-wt kinase domain. To be noted: read-out: TRKA-wt Ki^app; apparent inhibitory constant, Morrison equation; ATP 2 mM in substrate solution.
For assay [1], the target named is Ba/F3 cells CD74-ROS1 wild-type (wt) (Homo sapiens, UniProt P08922). The assay is described as follows: Ba/F3 cell proliferation assay, CD74-ROS1 wild-type. Format: cell-based. As to conditions: read-out: CD74-ROS1-wt IC50, 72 hours, CellTiter-Glo. For orientation: Cellular ATP, detected with luciferase, serves as a proxy for viable cell number.
Assay [2] addresses Ba/F3 cells CD74-ROS1 G2032R (Homo sapiens, UniProt P08922, G2032R). The assay can be described thus: Ba/F3 cell proliferation assay, CD74-ROS1 G2032R. Format: cell-based. As to conditions: read-out: CD74-ROS1-G2032R IC50, 72 hours, CellTiter-Glo.
Assay [3] addresses Ba/F3 cells EML4-ALK wt (variant 1) (Homo sapiens, UniProt Q9UM73). The assay is described as follows: Ba/F3 cell proliferation assay, EML4-ALK wt (variant 1). As to conditions: read-out: EML4-ALK-wt IC50, 72 hours, CellTiter-Glo.
For assay [4], the target named is Ba/F3 cells EML4-ALK L1196M/G1202R (variant 1) (Homo sapiens, UniProt Q9UM73, G1202R/L1196M). The assay is described as follows: Ba/F3 cell proliferation assay, EML4-ALK L1196M/G1202R (variant 1). To be noted: read-out: EML4-ALK-L1196M-G1202R IC50, 72 hours, CellTiter-Glo.
Another assay concerns the target Ba/F3 cells TPM3-TRKA (Homo sapiens, UniProt P04629). The assay is described as follows: Ba/F3 cell proliferation assay, TPM3-TRKA. To be noted: read-out: TPM3-NTRK1-wt IC50, 72 hours, CellTiter-Glo.
Assay [5] relates to TPM3-NTRK1-wt IC50 / primary target IC50 (e.g. CD74-ROS1-wt). The assay can be described thus: TRKA selectivity in Ba/F3 cells (TRKA potency divided by primary target potency).

The chains behind the UniProt entries cited, without tags or fusion partners. Where a name states a change or a piece, a line headed by the entry shows the natural chain unless it says otherwise. A line that says so, or that is headed by a name, gives the form on record, which may keep a tag or linker. Residues count along the entry.
UniProt Q9UM73, 1116-1392 limits assumed: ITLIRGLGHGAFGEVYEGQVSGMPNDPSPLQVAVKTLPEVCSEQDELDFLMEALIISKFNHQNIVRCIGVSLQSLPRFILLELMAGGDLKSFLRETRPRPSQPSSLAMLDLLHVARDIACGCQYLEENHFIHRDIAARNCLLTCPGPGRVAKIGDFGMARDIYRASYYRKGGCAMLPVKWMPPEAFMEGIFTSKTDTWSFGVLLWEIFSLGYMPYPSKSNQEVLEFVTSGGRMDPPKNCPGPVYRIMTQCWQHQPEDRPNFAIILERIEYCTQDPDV
UniProt Q9UM73, 1116-1392 L1196M/G1202R limits assumed: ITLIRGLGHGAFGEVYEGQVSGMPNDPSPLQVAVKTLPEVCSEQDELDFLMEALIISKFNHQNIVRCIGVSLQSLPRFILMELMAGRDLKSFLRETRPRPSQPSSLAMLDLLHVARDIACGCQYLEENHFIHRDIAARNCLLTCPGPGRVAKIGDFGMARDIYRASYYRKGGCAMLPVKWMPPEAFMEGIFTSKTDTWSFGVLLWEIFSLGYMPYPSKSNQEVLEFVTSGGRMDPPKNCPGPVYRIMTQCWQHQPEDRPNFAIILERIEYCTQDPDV
UniProt Q9UM73, with tags, fused parts or gaps limits assumed: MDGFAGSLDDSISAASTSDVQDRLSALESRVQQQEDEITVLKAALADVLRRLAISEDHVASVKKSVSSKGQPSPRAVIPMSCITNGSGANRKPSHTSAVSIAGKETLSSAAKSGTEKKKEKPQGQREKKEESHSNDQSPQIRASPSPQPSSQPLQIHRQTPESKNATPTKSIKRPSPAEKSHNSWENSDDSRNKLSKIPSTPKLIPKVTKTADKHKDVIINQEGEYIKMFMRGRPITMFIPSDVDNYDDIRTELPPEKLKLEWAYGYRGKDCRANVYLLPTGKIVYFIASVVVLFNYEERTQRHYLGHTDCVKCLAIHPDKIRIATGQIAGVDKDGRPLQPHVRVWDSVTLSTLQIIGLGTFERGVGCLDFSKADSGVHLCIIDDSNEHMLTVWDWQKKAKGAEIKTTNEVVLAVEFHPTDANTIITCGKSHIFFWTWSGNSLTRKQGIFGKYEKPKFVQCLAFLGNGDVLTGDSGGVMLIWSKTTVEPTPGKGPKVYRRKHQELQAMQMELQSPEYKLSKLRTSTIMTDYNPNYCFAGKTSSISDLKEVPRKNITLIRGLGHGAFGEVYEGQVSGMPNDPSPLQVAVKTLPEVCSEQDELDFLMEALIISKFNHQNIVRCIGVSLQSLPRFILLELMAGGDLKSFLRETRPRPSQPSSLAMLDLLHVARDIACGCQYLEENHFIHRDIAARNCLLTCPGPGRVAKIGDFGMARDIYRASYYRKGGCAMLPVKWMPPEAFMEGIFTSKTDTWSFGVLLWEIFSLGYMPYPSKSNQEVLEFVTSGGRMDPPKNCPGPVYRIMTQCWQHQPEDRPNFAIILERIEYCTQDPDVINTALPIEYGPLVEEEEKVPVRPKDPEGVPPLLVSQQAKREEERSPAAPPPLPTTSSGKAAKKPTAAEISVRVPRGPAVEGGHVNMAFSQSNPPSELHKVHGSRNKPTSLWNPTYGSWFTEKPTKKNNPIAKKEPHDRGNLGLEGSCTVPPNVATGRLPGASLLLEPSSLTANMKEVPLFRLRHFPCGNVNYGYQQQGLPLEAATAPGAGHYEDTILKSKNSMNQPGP
UniProt Q9UM73, with tags, fused parts or gaps G1202R/L1196M limits assumed: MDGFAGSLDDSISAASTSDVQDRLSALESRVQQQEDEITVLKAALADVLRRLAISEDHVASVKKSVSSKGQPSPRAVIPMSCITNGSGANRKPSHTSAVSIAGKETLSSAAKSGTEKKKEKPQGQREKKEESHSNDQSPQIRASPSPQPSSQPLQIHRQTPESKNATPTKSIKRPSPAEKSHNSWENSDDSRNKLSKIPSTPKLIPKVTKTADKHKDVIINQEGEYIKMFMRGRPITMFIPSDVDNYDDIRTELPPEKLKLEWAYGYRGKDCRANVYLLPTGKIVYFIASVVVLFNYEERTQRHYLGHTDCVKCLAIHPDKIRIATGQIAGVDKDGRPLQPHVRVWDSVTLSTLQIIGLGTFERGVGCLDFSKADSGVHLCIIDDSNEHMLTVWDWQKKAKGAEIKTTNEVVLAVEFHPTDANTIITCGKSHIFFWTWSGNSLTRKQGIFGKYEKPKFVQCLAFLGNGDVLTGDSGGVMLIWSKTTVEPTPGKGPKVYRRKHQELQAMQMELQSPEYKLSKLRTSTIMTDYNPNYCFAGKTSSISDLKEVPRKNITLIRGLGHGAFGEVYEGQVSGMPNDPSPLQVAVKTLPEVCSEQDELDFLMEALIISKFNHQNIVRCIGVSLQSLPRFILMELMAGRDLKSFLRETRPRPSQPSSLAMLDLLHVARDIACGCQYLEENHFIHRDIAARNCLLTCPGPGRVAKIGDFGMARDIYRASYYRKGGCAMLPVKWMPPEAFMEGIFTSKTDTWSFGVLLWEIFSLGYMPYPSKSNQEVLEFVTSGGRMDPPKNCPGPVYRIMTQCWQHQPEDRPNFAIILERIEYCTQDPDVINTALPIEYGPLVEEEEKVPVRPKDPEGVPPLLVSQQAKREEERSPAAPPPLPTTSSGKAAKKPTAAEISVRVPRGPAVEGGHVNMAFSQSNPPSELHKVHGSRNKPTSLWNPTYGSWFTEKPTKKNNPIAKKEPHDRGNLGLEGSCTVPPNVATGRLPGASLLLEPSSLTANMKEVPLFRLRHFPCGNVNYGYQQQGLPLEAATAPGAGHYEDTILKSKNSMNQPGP
UniProt P08922, 1883-2347 limits assumed: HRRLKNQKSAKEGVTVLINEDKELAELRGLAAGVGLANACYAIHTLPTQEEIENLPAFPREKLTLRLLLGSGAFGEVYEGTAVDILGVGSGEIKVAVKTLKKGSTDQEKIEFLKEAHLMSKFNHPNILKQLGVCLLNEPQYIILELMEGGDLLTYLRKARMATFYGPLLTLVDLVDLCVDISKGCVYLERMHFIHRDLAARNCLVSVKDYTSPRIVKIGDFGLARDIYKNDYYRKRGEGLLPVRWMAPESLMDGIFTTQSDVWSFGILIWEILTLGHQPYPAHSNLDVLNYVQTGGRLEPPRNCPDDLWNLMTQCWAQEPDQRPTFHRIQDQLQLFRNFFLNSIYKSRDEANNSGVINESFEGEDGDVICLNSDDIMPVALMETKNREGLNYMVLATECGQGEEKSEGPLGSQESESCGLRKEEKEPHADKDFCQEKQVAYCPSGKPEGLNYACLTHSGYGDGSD
UniProt P08922, 1945-2222 limits assumed: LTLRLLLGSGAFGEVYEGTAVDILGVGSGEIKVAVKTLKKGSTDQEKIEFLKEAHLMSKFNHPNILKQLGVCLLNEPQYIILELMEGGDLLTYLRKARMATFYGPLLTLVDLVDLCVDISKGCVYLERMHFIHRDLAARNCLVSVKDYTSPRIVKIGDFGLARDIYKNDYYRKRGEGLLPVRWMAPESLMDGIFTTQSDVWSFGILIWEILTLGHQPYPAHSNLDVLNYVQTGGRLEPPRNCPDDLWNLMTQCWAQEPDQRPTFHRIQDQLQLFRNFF
UniProt P08922, 1883-2347 G2032R limits assumed: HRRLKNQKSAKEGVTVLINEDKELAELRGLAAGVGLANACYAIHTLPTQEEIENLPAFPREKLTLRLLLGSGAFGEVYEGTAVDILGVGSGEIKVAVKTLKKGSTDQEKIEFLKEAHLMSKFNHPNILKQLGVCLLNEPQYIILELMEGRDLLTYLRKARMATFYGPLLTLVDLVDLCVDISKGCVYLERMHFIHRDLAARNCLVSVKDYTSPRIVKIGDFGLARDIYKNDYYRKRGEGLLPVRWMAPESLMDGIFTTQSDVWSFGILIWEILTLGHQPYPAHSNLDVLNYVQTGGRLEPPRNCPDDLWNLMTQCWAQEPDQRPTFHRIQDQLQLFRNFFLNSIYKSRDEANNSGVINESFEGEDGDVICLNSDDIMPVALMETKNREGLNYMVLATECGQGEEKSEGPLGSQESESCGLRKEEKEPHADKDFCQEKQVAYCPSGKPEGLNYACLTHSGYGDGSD
UniProt P08922, 1945-2222 G2032R limits assumed: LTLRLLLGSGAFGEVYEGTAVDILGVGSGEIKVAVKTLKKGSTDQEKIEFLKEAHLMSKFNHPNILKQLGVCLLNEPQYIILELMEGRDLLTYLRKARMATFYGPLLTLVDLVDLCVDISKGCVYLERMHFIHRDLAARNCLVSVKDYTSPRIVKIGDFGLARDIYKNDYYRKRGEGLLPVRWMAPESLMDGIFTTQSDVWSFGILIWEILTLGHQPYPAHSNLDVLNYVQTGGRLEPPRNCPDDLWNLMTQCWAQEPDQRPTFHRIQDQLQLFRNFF
UniProt P04629, 510-781 limits assumed: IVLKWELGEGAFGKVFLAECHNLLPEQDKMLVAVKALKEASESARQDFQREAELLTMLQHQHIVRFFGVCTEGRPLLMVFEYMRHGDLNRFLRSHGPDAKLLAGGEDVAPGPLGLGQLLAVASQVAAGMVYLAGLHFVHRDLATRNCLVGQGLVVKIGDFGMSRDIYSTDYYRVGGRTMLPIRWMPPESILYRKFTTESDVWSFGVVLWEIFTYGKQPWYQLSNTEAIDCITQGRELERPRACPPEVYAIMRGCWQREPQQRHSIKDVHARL
UniProt P04629, 510-796 limits assumed: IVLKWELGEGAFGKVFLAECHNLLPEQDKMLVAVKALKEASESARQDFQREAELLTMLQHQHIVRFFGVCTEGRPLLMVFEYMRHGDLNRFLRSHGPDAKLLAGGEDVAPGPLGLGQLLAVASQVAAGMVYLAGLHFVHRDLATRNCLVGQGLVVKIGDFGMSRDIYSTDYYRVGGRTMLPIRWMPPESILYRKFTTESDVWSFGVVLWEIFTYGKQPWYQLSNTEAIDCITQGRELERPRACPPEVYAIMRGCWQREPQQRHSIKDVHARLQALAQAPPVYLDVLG

The match of structure and compound is tentative. Bounds are passed on as bounds.

Take `Cc1nn(CC2CC2)c2c1Cc1nn(C)nc1-c1ccc(F)cc1[C@@H](C)Oc1nc-2cnc1N`: the Ki on ALK-wt is below 50 nM; at ALK L1196M/G1202R, below 50 nM; at ROS1-wt, below 50 nM; on ROS1-G2032R, below 50 nM; on TRKA-wt, above 500 nM. In addition, the IC50 was 0.1 to 50 nM in assay [1]; 0.1 to 50 nM in assay [2]; 0.1 to 50 nM in [3]; 0.1 to 50 nM in assay [4]; above 500 nM on Ba/F3 cells TPM3-TRKA. Also, the TPM3-NTRK1-wt/CD74-ROS1-G2032R selectivity ratio entry in assay [5] (TRKA potency / CD74-ROS1-G2032R potency) is reported as “A (bin A for very high selectivity, ratio >30-fold)”. In [5] (TRKA potency / CD74-ROS1-wt potency), the TPM3-NTRK1-wt/CD74-ROS1-wt selectivity ratio result is given as “A (bin A for very high selectivity, ratio >30-fold)”. Moreover, the TPM3-NTRK1-wt/EML4-ALK-L1196M-G1202R selectivity ratio result in assay [5] (TRKA potency / EML4-ALK-L1196M-G1202R potency) was “A (bin A for very high selectivity, ratio >30-fold)”. Moreover, the TPM3-NTRK1-wt/EML4-ALK-wt selectivity ratio entry in [5] (TRKA potency / EML4-ALK-wt potency) was “A (bin A for very high selectivity, ratio >30-fold)”.

The IC50 is the concentration that gives 50% inhibition.
